Here are results for three molecules from patent US20240174741A1.

Assay [1] deals with T1, human interleukin-38 (IL-38) (human) (UniProt Q8WWZ1).
T1 sequence (looked up): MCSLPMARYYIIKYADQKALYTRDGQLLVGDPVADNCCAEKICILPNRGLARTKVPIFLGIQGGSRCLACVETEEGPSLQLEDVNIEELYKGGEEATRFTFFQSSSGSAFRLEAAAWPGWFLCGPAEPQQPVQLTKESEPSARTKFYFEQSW
In words: CDI HuProt native protein microarray.

A further assay addresses T2, mouse IL-38 (mouse) (UniProt Q8R459).
T2 sequence (looked up): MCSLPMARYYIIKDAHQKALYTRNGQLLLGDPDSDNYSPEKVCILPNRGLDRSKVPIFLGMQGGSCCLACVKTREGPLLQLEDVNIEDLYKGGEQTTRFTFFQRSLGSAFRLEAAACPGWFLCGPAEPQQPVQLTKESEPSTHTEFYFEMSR
In words: BLI (Octet QKe). For orientation: Biolayer interferometry detects binding as a change in optical thickness at a sensor tip.

The target in assay [2] is T1, human interleukin-38 (IL-38) (human). Briefly: BLI (Octet QKe).
Assay [3] shares this target. Briefly: summary of in vitro assays.

These are yes or no findings as the source states them, for the method shown. Some binding calls cover weakened binding; strength is not graded here.

B1: NZB-M8 (antibody, V domains shown)
VH: EVQLQQSGPELVKPGASVKISCKASGYSFTGYYMHWVKQSPEKSLEWIGVINPNTGGITYNQKFKAKATLNVDKSSSTAYMQLKSLTSEDSAVYYCARSMGVWGQGTLVTVSA
VL: DIVMTQAAPSVSVTPGESVSISCRSSKSLLHSNGNTYLYWFLQRPGQSPQLLIYRMSNLASGVPDRFSGSGSGTAFTLRISRVEAEDVGVYYCMQYLEYPFTFGSGTKLEIK
Take B1: the binding entry in assay [1] is recorded as “binds”.

B2: CD1-M3 (antibody, V domains shown)
VH: EVQLQQSGPELVKPGASVKIPCKASGYTFTDYNMDWVKQSHGKSLEWIGDINPNNGGTIYNQKFKGKATLTVDKSSSTAYMELRSLTSEDTAVYYCSRPYYGYFAYWGQGTLVTVSA
VL: DVVMTQSPLSLPVSLGDQASISCRSSQSLVHSHENTFLHWYLQKPGQSPKLLIYRVSNRFSGVPDRFSGSGSGTDFTLKISRVEAEDLGVYFCSQSTHVPLTFGAGTKLELK
With B2, the binding entry (in assay [1]; with mouse IL-38 (mouse); in assay [2]; in assay [3]) was “binds” throughout.

B3: CD1-M8 (antibody, V domains shown)
VH: EVQLQQSGPELVKPGASVKMSCKASGYTFTDYYIHWVKQSHGKGLEWIGYIFPNNGGNGYSQKFKGKATMTVDKSSSTAYMELRSLTSEDSAVYYCARGGYDAGFVYWGQGTLVTVSA
VL: DIVMSQSPSSLAVSAGEKVTMSCKSSQSLFNSGARKNFLAWYQQKPGQSPKLLIYWASTRESGVPDRFTGSGSGTDFTLTISSVQAEDLAVYYCKQSYYLITFGAGTKLELK
Consider B3, for which the binding result in assay [1] and in assay [3] was “binds” in each case.
